Assay results taken from the RNAGym collection of RNA variant scans (doi:10.1126/science.aae0568).
Variants at the background level are over-represented here.

B1: tRNA (parent)
chain: GUUCCGUUGGCGUAAUGGUAACGCGUCUCCCUCCUAAGGAGAAGACUGCGGGUUCGAGUCCCGUACGGAACG

Variants of: B1
Assay: yeast fitness relative to wild type (ratio to wild type); higher = fitter; tRNA-Arg(CCU), competitive growth, 37 C, YPD
Method in brief: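 Start and end populations of a pooled competition were compared by 100-nucleotide paired-end sequencing of gene amplicons. The Saccharomyces cerevisiae strains carried tRNA-Arg(CCU) gene variants at the native genomic locus, synthesised with a 3% per-site mutation rate at 69 sites, and competed in YPD at 37°C for 24 hours in six parallel replicates. Darwinian fitness relative to wild type was based on the change in genotype frequencies. Genotypes required ≥ 100 starting reads, and estimates < 0.5 were set to 0.5.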

Yeast fitness, 0.563:
A15C A40U A70U

Yeast fitness, 0.63:
U13A A37U

Yeast fitness, 0.562:
C31G G41A A43C G51C

Yeast fitness, 0.582:
A36U C61U C66U

Yeast fitness, 0.567:
A15U G18A A42U

Yeast fitness, 0.56:
C60A A69G
C5G U13A C30U
C11A C46U A70G

Yeast fitness, 0.824:
C5G C31G

Yeast fitness, 0.923:
C61U A69G A70C

Yeast fitness, 0.53:
G6A C11A U19A

Yeast fitness, 0.546:
U8C G18C G50A C60U

Yeast fitness, 1.01:
A40G G48A

Yeast fitness, ≤ 0.5:
C24G C30A U54G
A15G C24G A45G
C27U C29U C49G U54C
U2G C30U U47A U59A C60U C62G C66U
U13C A20G G23C C31U C46G A70U
C29U G44C U47C G52A
U16G C30U C33G C55U G68U
A15U C22U C29U
A14C C29G C30A G63C
U3G C5U C30U A40U C49U
C4A C5U C22U C34A A57G
C24G U28C G50C
U7C G23C G48C
C5U G18C C29U
U26A G48C A65U A70U
G10A A36G U53C
A37C C46G C60U
U13A C22A A36U A45G
C11U U54C C61U
U3A C11G C30G G41A C60U
C4A C5U G17A G39A G52C
C24U C31G G52C A57U
U13A G23C C27G U47A A70C
G6A C11A U32A C34G
U8C C29U A42U A43U C55G
G12C A14C U54C G68A
C11U C24G A36U A37C
G6C A45G C49G
G9C C11G G12C U28C C61U A65G
A36C A43G G48C
A14G A42G G48A
G10C A36U A42G G56A U59G
C5U C11A A45U A69U
U28G C33G A70C
U26A C49U C66A
C22G C49G U64G A65G A70U
U32A G39A G63A
G10C C22A C60G C61U G63A
U7G G52A C55U
G10C U13A A40C C60G
G10A G18C A20U C30A A69U
C29G C55G A57G A65C
A21U U32C A45U G67C
C22U C30G C34A A37C A65U
G17A A21C C29U
C5G G6C A15G C62U A65C C66U
C11A C30U C66U
C11A A21G C34U A37G
C27A C46A C49A C55A
G41C C60U U64G
A14U U26A C30U
A37C C46U U59A
U2C C5G G9A A15U C62U A69U
G12A C24A A43G G52A A69U A70C
C29U C31U U59C C66U
G23C G39C A42U G52U U53A
U2A C5U C29G A37U A65G
C27G U47G C49U
U7A C22U G23A C46A
U2G U3G G18A A20C C49U C55U
C24U G58A A65C A69U
G10A U19A C29U G41C C66U
C4G C11U U47A C60G C62A
C5G A14U G18A A21U
C4G A40C G68A
C11G C27G C55A C66G G67U
U13A C30A C31U A43C U53G G56A
G6C G41C C49G C55U
U19A G41A A42G G58U G63C
U3C U7C G10A C24G
A15U G38C G41C A65G
C4U G12A C60G
U8C U28C A37C G56A U59C
C29A C30G A57G
U26G U54G A69U
C5A G38U C55A
C4U C33A G48C
U13A G23C C27G U53C C61A G68A A70C
U13A U47A C60A G68A
C34U A36G A57G
C29U U47A C55G
U2G C4A U16C C62G
C4A A45C C46U
U3A A15C A21U
C24G G52A C66U
C4G C5U C31G G41A A43C G51C A70U
U2G U13A G17C U26A C46G
A21G C31A A65U
C11U C29U A42C U59A
C22A C30U C61G
C5G G6C C49U G51A
U19A A36G A42C C61G A65C
C22U A40U C61G
G17C C33U C34A A43C
U16A C34G A45C C60A C61G
A20C C33U G41A G63A
U8A G23A C30G
A14C U26A C34A G44A
C11G C22U C30A U53A G58A
C11U A40C G41C
A15U A57G U64A
C4U U7C C24U C29U C34G
C11U C34G A40C G51C
C5G A36U G41A
C4U C30A C34G A40G
C4A U13G C49A
G25A C49A U54G
C27A C49A G50C G56U
G6A C27G G38C G63A A65C
C5A C30A C34U C46U
G39C A45G U53C
C31A G56U G67A A70C
U16A A20G A36C C49G C61G C62G
G17A A45U G51A
G18A U59C A69G
A20C C22U C34U U35G A65C
C11A A36G G52A
G18C C29U C55G G67U
C5A C27U A37U
C29A A45C C46G G68C
C5U U35C A36U G38A C46A U54A
G52A G56U G67U
U3A C22G C24U C33A G58A
C4G C55U A65G G68C
C31A C60G G67A
G17A U54C U59C C61G
C5U A21G U32C A65U G68A
U19A C22U U32C G67U
C27G C31U C34G A37G A69U
U2G U35G A45G C49G U59C C60U
U19A C22G C61A
C30U C31U A36U C55A A65U
U16A C49A G50A G68C
A20C A36C U47C
A15G G58C C62G
G9A A21U A36G A40C C49U C66U
C4G C5A A20U A69C
C5U C11U A36U G56C
U19A C30A A43U G58C A65U
C11A A43U C62G A70U
G9C A15G C34U G50A
U3C U32G A40C G41A C61U G68A
U7A C30U G39A A40G G67A
U8A A57C

Yeast fitness, 0.57:
C5U C11U A14U

Yeast fitness, 0.693:
A36G C61U A69C

Yeast fitness, 0.533:
C11G A36C G56A

Yeast fitness, 0.695:
C66A G68A

Yeast fitness, 0.597:
G10A C46G A65C

Yeast fitness, 0.619:
C55G C62A

Yeast fitness, 0.688:
G12A G52A

Yeast fitness, 0.783:
U7A G12A

Yeast fitness, 0.763:
C4G G38C

Yeast fitness, 0.621:
C33A C34A
